# These are yes or no findings as the source states them, for the method shown.
# Molecular target: recombinant cynomolgus LILRB2 (cynomolgus monkey)
# Test: SPR, LILRB2 immobilised, scFv as analyte
row,binding,Binder
1,no binding (tested: 10 nM),PRO3697 (scFv) scFv: AFQLTQSPSSLSASVGDRVTITCQASQSIGTYLAWYQQKPGKPPKLLIYRGGTLASGVPSRFSGSGSGTDFTLTISSLQPEDFATYYCQSYDSSNTFGTGTKVTVLGGGGGSGGGGSGGGGSGGGGSQEQLVESGGGLVQPGRSLRLSCAASGFDLSADYMCWVRQAPGKGLEWIACIYIDDDNTYYATWAKGRFTISKDNSKNTVYLQMNSLRAEDSAVYFCARGYGVYTGAITYFTLWGQGTLVKVSS
2,no binding (tested: 10 nM),PRO3744 (scFv) scFv: DVQMTQSPSSLSASVGDRVTITCQASQSIGSNLAWYQQKPGKPPKLLIYKGGTLESGVPSRFSGSGSGTDFTLTISSLQPEDFATYYCQSTAGSSRSGNYGYVFGCGTKVTVLGGGGGSGGGGSGGGGSGGGGSQQLVESGGGLVQPGGSLRLSCAASGFSFTNNYYMCWVRQAPGKCLEWIACMLVGAWGNTYYASWANGRFTISKDNSKNTVYLQMNSLRAEDSAVYFCARARDYTWTLGGDPETSGFNLWGQGTLVKVSS
3,no binding (tested: 10 nM),PRO3696 (scFv) scFv: DVQMTQSPSSLSASVGDRVTITCQASQSIGLNLAWYQQKPGKPPKLLIYAGGYLASGVSSRFSGSGSGTDFTLTISSLQPEDFATYYCQSTYDGSSFVFAFGTGTKVTVLGGGGGSGGGGSGGGGSGGGGSQEQLVESGGGLVQPGGSLRLSCAASGFSFSSSSYMCWVRQAPGKGLEWIACMVTGSSDDTDYASWAKGRFTISKDNSKNTVYLQMNSLRAEDSAVYFCARAGSAPLWGQGTLVKVSS

# From patent EP4574844A1
